Some of the results follow.

The chains behind the UniProt entries cited, without tags or fusion partners. Where a name states a change or a piece, a line headed by the entry shows the natural chain unless it says otherwise.
UniProt Q06413, whole entry, looked up: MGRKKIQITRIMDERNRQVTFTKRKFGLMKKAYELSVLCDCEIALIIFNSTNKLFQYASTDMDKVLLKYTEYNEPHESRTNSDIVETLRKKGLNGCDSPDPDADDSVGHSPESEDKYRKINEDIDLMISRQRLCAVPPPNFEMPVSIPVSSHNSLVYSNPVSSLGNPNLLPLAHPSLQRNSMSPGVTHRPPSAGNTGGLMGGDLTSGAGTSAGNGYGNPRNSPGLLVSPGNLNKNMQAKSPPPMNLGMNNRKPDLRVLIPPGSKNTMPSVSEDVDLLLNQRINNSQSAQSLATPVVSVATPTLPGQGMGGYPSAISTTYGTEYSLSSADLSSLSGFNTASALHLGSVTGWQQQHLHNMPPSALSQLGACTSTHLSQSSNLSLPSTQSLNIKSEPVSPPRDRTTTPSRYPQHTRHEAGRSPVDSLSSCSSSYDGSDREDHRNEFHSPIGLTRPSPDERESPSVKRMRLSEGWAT
UniProt Q8TDD5: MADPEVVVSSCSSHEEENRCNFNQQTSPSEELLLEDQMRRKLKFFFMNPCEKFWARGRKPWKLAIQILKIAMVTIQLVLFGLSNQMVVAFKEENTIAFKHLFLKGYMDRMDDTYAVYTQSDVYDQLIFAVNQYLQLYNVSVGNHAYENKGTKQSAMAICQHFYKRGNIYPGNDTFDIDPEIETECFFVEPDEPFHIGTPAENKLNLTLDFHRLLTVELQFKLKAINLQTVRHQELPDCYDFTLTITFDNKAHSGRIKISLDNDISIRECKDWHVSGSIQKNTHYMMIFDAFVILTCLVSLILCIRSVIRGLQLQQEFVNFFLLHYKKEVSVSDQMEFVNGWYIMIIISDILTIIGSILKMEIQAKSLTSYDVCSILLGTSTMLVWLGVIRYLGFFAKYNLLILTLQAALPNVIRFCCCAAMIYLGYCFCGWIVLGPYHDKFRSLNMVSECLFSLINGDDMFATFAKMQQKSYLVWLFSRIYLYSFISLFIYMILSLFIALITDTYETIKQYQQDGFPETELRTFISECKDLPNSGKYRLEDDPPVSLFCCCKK
UniProt Q9NS73: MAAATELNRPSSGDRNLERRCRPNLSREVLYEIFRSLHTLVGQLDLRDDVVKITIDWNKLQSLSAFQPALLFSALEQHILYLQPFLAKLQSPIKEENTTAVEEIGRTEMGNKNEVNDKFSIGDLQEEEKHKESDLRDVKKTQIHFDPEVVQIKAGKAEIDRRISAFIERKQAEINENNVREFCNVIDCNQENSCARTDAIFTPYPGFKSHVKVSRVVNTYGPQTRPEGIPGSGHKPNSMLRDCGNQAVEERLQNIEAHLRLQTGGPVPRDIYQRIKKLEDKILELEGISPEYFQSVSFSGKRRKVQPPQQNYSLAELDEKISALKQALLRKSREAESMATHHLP
UniProt Q7L590: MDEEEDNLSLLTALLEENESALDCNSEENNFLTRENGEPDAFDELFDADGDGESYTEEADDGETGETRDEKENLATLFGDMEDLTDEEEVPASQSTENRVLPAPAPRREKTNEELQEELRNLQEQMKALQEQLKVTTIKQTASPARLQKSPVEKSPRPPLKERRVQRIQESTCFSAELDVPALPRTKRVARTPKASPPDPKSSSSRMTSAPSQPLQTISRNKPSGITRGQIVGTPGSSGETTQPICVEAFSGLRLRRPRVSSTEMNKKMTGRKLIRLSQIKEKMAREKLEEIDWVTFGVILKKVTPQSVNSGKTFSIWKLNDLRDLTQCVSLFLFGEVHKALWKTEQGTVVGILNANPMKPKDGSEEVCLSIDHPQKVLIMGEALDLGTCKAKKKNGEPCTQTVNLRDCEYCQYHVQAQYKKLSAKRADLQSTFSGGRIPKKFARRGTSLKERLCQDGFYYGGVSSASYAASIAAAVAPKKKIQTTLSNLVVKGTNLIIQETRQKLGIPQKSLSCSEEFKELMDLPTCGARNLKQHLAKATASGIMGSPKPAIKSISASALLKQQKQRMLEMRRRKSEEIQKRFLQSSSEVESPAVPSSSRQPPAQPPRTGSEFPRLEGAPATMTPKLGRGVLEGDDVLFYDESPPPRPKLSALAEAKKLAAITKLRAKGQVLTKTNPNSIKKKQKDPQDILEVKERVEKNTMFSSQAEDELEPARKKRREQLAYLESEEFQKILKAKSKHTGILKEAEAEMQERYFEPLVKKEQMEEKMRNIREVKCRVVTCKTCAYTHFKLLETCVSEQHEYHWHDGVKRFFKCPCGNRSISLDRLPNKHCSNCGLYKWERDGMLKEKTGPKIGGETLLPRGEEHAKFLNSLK
UniProt Q9P086: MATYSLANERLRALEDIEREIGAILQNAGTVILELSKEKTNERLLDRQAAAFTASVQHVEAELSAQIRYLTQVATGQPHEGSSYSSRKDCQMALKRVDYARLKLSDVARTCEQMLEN
UniProt Q93074, whole entry, looked up: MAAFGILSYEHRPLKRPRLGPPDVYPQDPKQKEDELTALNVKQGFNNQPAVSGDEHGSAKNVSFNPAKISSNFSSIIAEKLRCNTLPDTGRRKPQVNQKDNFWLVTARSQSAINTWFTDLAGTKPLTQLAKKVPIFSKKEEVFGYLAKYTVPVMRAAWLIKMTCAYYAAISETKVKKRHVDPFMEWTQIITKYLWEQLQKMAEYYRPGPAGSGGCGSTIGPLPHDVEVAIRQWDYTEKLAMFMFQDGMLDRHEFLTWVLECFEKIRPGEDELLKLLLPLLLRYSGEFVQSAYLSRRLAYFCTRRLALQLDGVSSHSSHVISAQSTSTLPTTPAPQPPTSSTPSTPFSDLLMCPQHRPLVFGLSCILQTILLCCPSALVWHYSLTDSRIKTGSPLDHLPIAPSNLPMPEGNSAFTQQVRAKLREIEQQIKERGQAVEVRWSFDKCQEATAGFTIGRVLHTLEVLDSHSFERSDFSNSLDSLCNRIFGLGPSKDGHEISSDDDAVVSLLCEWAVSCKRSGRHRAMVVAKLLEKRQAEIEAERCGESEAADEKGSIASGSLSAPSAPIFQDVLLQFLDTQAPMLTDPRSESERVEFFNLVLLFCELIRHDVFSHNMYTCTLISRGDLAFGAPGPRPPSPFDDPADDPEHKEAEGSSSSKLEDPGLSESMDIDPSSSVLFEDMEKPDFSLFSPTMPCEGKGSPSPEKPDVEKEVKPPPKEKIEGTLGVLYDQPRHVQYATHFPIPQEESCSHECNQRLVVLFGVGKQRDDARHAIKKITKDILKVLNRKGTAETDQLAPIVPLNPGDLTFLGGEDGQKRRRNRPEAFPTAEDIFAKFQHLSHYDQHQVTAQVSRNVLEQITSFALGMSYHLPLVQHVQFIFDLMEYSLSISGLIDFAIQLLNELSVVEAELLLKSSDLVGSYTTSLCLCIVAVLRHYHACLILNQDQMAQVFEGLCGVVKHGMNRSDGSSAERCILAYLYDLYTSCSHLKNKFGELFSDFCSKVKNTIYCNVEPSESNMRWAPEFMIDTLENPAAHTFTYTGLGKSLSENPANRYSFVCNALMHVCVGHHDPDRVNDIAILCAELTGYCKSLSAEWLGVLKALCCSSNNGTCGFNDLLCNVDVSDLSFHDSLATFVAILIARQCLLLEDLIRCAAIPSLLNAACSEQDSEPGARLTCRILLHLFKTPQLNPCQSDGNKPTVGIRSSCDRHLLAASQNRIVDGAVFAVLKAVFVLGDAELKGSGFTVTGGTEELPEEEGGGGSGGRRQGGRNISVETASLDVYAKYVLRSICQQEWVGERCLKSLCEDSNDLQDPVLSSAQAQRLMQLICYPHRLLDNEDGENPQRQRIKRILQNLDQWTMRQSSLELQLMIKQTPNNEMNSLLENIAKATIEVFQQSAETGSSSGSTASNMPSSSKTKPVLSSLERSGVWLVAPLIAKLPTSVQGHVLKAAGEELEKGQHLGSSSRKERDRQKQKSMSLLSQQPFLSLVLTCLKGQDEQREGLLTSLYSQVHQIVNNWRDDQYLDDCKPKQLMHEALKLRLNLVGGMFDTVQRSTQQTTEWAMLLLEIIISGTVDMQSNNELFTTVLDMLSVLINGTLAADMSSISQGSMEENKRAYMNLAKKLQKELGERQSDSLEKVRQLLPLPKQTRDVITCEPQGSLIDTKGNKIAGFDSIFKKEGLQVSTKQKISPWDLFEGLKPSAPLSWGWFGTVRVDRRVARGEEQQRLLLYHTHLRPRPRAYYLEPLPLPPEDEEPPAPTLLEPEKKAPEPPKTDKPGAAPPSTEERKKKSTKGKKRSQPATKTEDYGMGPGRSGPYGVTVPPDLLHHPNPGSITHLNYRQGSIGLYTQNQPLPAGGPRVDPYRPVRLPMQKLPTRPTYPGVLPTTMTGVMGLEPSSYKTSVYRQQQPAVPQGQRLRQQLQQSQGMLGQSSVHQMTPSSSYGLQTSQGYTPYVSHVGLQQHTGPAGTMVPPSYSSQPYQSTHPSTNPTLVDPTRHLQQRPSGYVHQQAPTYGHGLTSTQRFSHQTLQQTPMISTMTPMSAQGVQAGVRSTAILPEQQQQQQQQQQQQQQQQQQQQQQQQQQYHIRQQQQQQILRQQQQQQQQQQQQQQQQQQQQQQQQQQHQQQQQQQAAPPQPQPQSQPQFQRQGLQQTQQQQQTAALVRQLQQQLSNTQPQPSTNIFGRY
UniProt Q96KG7: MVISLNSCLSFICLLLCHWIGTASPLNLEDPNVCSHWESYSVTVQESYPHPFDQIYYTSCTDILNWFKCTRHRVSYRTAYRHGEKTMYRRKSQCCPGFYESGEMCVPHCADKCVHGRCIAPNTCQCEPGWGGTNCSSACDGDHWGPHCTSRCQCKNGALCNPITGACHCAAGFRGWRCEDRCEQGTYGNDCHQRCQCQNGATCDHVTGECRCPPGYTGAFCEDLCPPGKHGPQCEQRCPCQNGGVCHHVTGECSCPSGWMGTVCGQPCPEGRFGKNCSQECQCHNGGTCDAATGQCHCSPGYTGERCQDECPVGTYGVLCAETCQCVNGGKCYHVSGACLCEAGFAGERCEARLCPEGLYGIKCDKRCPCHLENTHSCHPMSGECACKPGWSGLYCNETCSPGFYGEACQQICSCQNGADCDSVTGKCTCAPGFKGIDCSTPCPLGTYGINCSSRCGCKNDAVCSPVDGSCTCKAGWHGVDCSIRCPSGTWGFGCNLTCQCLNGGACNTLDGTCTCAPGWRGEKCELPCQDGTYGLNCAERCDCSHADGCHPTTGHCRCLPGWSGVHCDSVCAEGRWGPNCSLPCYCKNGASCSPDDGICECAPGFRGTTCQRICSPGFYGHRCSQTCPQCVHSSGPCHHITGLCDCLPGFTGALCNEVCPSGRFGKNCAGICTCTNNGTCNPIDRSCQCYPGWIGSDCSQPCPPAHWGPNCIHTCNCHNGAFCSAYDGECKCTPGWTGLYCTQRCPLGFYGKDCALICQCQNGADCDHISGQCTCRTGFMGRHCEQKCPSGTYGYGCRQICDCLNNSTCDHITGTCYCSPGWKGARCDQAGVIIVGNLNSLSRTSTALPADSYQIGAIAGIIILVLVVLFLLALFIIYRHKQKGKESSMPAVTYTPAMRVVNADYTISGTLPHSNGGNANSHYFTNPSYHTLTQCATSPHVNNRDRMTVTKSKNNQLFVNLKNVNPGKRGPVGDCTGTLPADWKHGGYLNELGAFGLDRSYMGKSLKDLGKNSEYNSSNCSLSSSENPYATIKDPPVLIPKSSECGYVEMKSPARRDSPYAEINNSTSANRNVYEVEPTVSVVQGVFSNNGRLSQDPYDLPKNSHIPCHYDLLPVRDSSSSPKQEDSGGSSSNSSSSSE
UniProt Q6NUT3: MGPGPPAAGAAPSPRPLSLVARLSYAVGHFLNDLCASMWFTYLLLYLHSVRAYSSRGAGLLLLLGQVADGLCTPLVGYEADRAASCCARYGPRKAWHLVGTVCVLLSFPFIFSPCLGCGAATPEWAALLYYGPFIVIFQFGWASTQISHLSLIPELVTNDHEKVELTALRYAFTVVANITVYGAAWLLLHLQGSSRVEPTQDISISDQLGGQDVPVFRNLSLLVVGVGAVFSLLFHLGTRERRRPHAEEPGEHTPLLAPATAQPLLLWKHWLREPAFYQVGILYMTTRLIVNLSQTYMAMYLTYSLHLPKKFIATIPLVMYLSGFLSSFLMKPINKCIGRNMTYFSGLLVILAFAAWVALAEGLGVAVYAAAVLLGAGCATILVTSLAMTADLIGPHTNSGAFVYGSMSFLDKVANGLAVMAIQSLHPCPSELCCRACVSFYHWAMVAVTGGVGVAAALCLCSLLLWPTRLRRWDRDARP
UniProt Q6P1Q9: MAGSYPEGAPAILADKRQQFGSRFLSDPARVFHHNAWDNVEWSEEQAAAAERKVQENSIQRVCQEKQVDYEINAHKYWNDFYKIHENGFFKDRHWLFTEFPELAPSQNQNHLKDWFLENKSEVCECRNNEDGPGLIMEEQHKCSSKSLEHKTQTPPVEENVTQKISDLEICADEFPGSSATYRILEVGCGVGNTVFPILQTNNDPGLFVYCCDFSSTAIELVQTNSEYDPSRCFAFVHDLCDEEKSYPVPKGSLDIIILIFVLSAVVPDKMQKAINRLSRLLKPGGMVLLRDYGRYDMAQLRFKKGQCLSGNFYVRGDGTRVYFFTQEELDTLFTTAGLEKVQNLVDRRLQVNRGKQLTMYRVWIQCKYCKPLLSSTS

log2 fold change data for 29 targets are collected here from the supplement of paper PMC10849652.

Experiment in all cases: log2 fold change, soluble protein after heating vs DMSO (PISA); higher = thermal stabilisation; K562 cells, 10 uM, 30 min; active = over 0.2 and 3.5 SD of the protein, either way, in both replicates (recomputed)
Compound in assay [1]: CC1=C(SC2=C1C(=N[C@H](C3=NN=C(N32)C)CC(=O)N)C4=CC=C(C=C4)Cl)C
The procedure, abridged: (§1)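 K562 cells at 2×10^6 cells/mL were treated for 30 min with 10 μM compound, and aliquots were heated for 3 min over 48°C-58°C before pooling. Extraction used PBS with 0.5% NP-40 at 4°C, and soluble protein was the supernatant after 21,000xg for 90 min, measured by TMTpro 16plex LC-MS/MS with channel sums equalised. Thermal stability values, relative to control samples and from duplicates, are log2 fold changes.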

Compound in assay [2]: c1ccc([C@@H]2C[C@H]2NC2CCNCC2)cc1
The procedure, abridged: as §1

Compound in assay [3]: C1=CC=C(C=C1)[C@H](COC2=CC3=C(C=C2)NC(=O)N3)NC(=O)C4=CC=CN(C4=O)CC5=CC(=C(C=C5)F)F
The procedure, abridged: as §1

Compound in assay [4]: Cc1sc2c(c1C)C(c1ccc(Cl)cc1)=N[C@@H](CC(=O)OC(C)(C)C)c1nnc(C)n1-2
The method, boiled down:
as §1

Compound in assay [5]: CC1=C2C(=CC=C1)N=C(N(C2=O)C3=CC=CC=C3C)CN4C=NC5=C(N=CN=C54)N
The method, boiled down:
as §1

Turning to METTL17 isoform 3 (UniProt Q9H7H0), the log2 fold change in assay [1] was inactive: -0.173; in assay [2] it was inactive: 0.091.
On to MDK (UniProt P21741), for which the log2 fold change in assay [3] is inactive: -0.045; in assay [1] it was inactive: -0.408; in assay [4] it was inactive: 0.255; in assay [2], inactive: 0.151.
Take MEF2C isoform 2 (UniProt Q06413): the log2 fold change in assay [4] is inactive: -0.198.
For MBNL1 isoform 5 (UniProt Q9NR56), the log2 fold change is inactive: 0.067 in assay [3] and inactive: -0.278 in assay [4].
Turning to MCOLN3 (UniProt Q8TDD5), the log2 fold change in assay [3] was inactive: -0.075; in assay [4] it was inactive: 0.039.
In the case of MEF2A (UniProt Q02078), in assay [4], the log2 fold change was inactive: 0.089.
On the same count and under the same terms, the result for MEGF8 (UniProt Q7Z7M0) reads inactive: -0.149.
Take MBIP (UniProt Q9NS73): the values for the log2 fold change in assay [3], in assay [5] and in assay [4] were inactive: 0.18, inactive: 0.112 and inactive: -0.011, respectively.
Taken in the same sequence, the figures for MCM10 (UniProt Q7L590) were inactive: -0.04, inactive: 0.204 and inactive: 0.032.
With MASP1 isoform 2 (UniProt P48740), the log2 fold change in assay [1] was inactive: -0.165; in assay [2], inactive: -0.206.
In the case of MED28 (UniProt Q9H204), the log2 fold change in assay [3] is inactive: 0.076; in assay [1], inactive: 0.144; in assay [4], inactive: -0.151; in assay [2] it was inactive: -0.026.
In the case of MED11 (UniProt Q9P086), the log2 fold change in assay [4] is inactive: 0.007.
As to MED26 (UniProt O95402), the log2 fold change in assay [1] was inactive: -0.046; in assay [5], inactive: 0.153; in assay [2], inactive: 0.078.
In the case of MED13L (UniProt Q71F56), the log2 fold change is inactive: -0.133 in assay [1], inactive: 0.104 in assay [5] and inactive: -0.029 in assay [2].
Regarding METTL6 (UniProt Q8TCB7), the log2 fold change in assay [3] was inactive: -0.116; in assay [1], inactive: 0.001; in assay [4] it was inactive: 0.017; in assay [2], inactive: 0.053.
As to MBTPS2 (UniProt O43462), the log2 fold change in assay [1] is inactive: -0.213; in assay [5] it was inactive: 0.145; in assay [4] it was inactive: -0.246; in assay [2], inactive: 0.145.
As for MED17 (UniProt Q9NVC6), the log2 fold change in assay [1] is inactive: -0.031; in assay [5], inactive: 0.038; in assay [4], inactive: 0.032; in assay [2], inactive: -0.011.
For the target MED12 isoform 2 (UniProt Q93074), the log2 fold change was inactive: -0.002 in assay [3] and inactive: -0.434 in assay [4].
Regarding MEF2A isoform 2 (UniProt Q02078), the log2 fold change in assay [1] is inactive: 0.015; in assay [5], inactive: -0.154; in assay [2], inactive: 0.08.
Turning to MATR3 (UniProt P43243), the log2 fold change in assay [3] is inactive: -0.014; in assay [5] it was inactive: 0.078; in assay [4], inactive: -0.057.
With METTL15 (UniProt A6NJ78), the log2 fold change in assay [3] was inactive: -0.172; in assay [4] it was inactive: 0.087.
Regarding MGRN1 isoform 2 (UniProt O60291), the log2 fold change is inactive: -0.088 in assay [3], inactive: -0.004 in assay [1], inactive: 0.036 in assay [4] and inactive: 0.086 in assay [2].
As for MATK isoform 2 (UniProt P42679), the log2 fold change was inactive: 0.218 in assay [1], inactive: 0.145 in assay [5] and inactive: -0.292 in assay [2].
MEGF10 (UniProt Q96KG7): the log2 fold change in assay [4] was inactive: 0.197.
Regarding MFSD12 isoform 3 (UniProt Q6NUT3), the log2 fold change in assay [1] was inactive: 0.026; in assay [4] it was inactive: -0.129; in assay [2] it was inactive: 0.135.
As to METTL2B (UniProt Q6P1Q9), the log2 fold change in assay [1] is inactive: -0.07; in assay [5], inactive: 0.03; in assay [2], inactive: 0.021.
For MED10 (UniProt Q9BTT4), the log2 fold change in assay [1] was inactive: 0.043; in assay [5], inactive: -0.108; in assay [4], inactive: -0.075; in assay [2] it was inactive: 0.03.
For MFAP3 (UniProt P55082), the results for the log2 fold change in assay [3], in assay [5] and in assay [4] were inactive: 0.007, inactive: 0.25 and inactive: -0.155, respectively.
For the target MED21 (UniProt Q13503), the log2 fold change was inactive: -0.035 in assay [1], inactive: -0.359 in assay [4] and inactive: -0.035 in assay [2].
